Assay results taken from the supplement of paper PMC3334620.
Whole data set: some 33,000 sequences, median “E-score (-0.5 to 0.5)” near -0.0059, cut for the highest 2% near 0.26. The list shows a part of the results.

target: T1, Cin5 (UniProt P40917); assay: PBM E-score (8-mer binding enrichment) (E-score (-0.5 to 0.5)); higher = stronger / more preferred TF binding; details: protein concentration: 100 nM; construct: GST-full length
T1 sequence: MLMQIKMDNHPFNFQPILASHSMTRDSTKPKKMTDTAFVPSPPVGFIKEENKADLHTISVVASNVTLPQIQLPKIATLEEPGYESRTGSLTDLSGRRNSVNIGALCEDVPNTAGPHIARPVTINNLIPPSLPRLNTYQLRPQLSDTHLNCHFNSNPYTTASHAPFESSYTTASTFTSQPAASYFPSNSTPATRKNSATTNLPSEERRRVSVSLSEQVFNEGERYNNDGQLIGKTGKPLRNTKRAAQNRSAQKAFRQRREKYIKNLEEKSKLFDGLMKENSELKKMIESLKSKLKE
Procedure: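 Universal 'all 10-mer' protein binding microarrays (Agilent AMADID 015681) probed with GST-tagged S. cerevisiae TFs (full-length or DBD) made by in vitro transcription/translation (PURExpress), about 100-200 nM. Bound TF was detected with fluorescent anti-GST. Each ungapped 8-mer (which stands for itself and its reverse complement) is scored by the PBM enrichment score (E-score), a modified Wilcoxon-Mann-Whitney statistic from -0.5 to +0.5, computed with the Universal PBM Analysis Suite. Scale: above 0.35 generally sequence-specific binding.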

| Sequence | PBM E-score |
| --- | --- |
| CAGCACTC | 0.0369 |
| ATTCTTAA | -0.0342 |
| CCGGGAAC | 0.0243 |
| CCCTTGCC | -0.119 |
| GCGACACC | -0.204 |
| GATTTTGC | -0.0519 |
| CCACCGGC | -0.207 |
| ACCCCTTC | -0.0781 |
| CATCGCCG | 0.0495 |
| CGTCTTTA | 0.134 |
| CCATCAGG | -0.146 |
| ATATAAGG | 0.137 |
| TATCACGA | 0.0776 |
| GTAAGAAC | 0.0555 |
| CTCGTAAC | 0.129 |
| AATTTCAA | 0.103 |
| ACAAACCT | 0.187 |
| GTATGCTA | -0.0513 |
| CACCACAA | -0.0267 |
| CCGCTAGG | -0.167 |
| CGGGCACG | -0.19 |
| AACCTTCT | -0.155 |

| Sequence | PBM E-score |
| --- | --- |
| GTAATATA | 0.323 |
| ACGTCGCA | -0.0635 |
| ACTGGGCA | -0.0941 |
| GCGCAATA | 0.00923 |
| AGAAGGGC | -0.254 |
| GGCACATA | -0.0683 |
| ATCAGGGG | -0.0935 |
| GTGTCCCA | -0.119 |
| CAGCGAAC | 0.014 |
| GGAGGCAA | -0.121 |
| AGGTCGAG | -0.133 |
| AGAGATAA | 0.213 |
| CACACACG | -0.0573 |
| ATCGGCTG | -0.0203 |
| AACGCAGA | -0.0604 |
| CGTGGACC | -0.303 |
| AGTTTTTC | 0.0533 |
| CGTTGCCA | -0.0899 |
| ATCGATTC | 0.0794 |
| GGGCTGAA | -0.0295 |
| GACGGTGA | -0.0952 |
| CGTAGAGC | -0.0105 |

| Sequence | PBM E-score |
| --- | --- |
| CCATTCGA | -0.045 |
| CTTCCCAC | 0.00503 |
| GCAACCAA | 0.119 |
| GGAACACC | -0.114 |
| AGAACTAA | 0.169 |
| GACCCTCC | -0.0998 |
| TCAACGCA | -0.00081 |
| ATCGACGG | -0.12 |
| GGCTCTAC | -0.194 |
| TAAGACAA | 0.145 |
| CTCCGAGC | 0.055 |
| CATAATTA | 0.308 |
| AAGATGTA | 0.172 |
| ACCCTAAT | 0.0242 |
| ACGGGTTC | -0.0118 |
| CGGATCAA | 0.177 |
| CCGCCGCA | -0.0653 |
| CCCGGATA | -0.0338 |
| CTCTCATC | -0.139 |
| CGTCCACA | -0.0072 |
| ATGATTTA | 0.268 |
| ACACCGAC | -0.08 |

| Sequence | PBM E-score |
| --- | --- |
| CATCGGGA | 0.0547 |
| GGCAAATA | 0.0144 |
| CAGGAGGG | -0.295 |
| GTCCCATA | -0.0251 |
| CGGACACC | -0.196 |
| GGGCGTTA | -0.21 |
| GTCCGACA | -0.0459 |
| AGCGGAGC | -0.183 |
| TAGTCTGA | -0.0562 |
| GAGCGTGC | 0.0704 |
| ATATTTGC | 0.209 |
| AGCAGATC | 0.0939 |
| ATCGCAGG | 0.0111 |
| GGATGTAA | 0.161 |
| CACTTTAG | 0.015 |
| ATTGAGAC | 0.0974 |
| GGATTCTA | -0.0627 |
| CTCGTAGC | -0.00363 |
| ATCTGTTC | 0.11 |
| ATCGCCTG | -0.154 |
